Data source: PubChem BioAssay AID720505 (Drosophila RNAi Screening Center, 2013)
In all, the deposit lists about 20,000 reagents; this is an unselected part of those that have a named target and a result. Over the whole deposit, about 2,100 (10%) are marked active. 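Raw plate signals without normalisation; calls rest on control-based scores that were not deposited; replicate 2 separates called from uncalled poorly.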 Entries without a mark were called inactive. A plus sign joins genes that one reagent is predicted to hit. Not given: the amount of reagent, the time to read-out.

Aim: 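Genes needed for store-operated calcium entry in fly cells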 (primary screen)
System: Drosophila S2R+ cells
Reagent: long dsRNA against Drosophila genes
Conditions: thapsigargin (2 µM) in calcium-free buffer to empty internal stores, then 2 mM calcium added back
Measurement: 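Stores emptied by 2 µM thapsigargin without calcium, then 2 mM calcium re-added; fluo-4 fluorescence followed by FLIPR in 384-well plates, per-well averaged endpoint, raw; two screen passes, some wells retested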
Direction: calcium signal and retest calcium signal: higher = more calcium entry after store depletion
Call rule: 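Knock-downs counted as hits when calcium entry dropped relative to STIM1 positive and Rho1 negative controls present on each plate; roughly 1500 genes called, with reductions of differing size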
Meaning of the calls: active = called as lowering calcium entry; inactive = not called

Target gene,dsRNA,"calcium signal, replicate 1","calcium signal, replicate 2","retest calcium signal, replicate 1","retest calcium signal, replicate 2"
CG14120,DRSC10124,97.9,55.7,,
Tao,DRSC19573,116,80.3,76.9,75.3
Tao,DRSC19574,71.1 (active),136,5096,137
Tao,DRSC22639,144,202,,
CG15522,DRSC15059,174,157,,
CG3339,DRSC15479,162,107,,
ppk25,DRSC04973,109,101,,
hll,DRSC01944,55.9 (active),124,,
CG4983,DRSC02799,106,91.5,,
CG15765,DRSC18071,113,93.9,,
CG15765,DRSC23026,101,160,,
CG5327,DRSC06930,159,161,,
Alg3,DRSC04700,134,95.8,,
CG9672,DRSC20201,121,111,,
CG34161,DRSC01132,230,136,,
Zmynd8,DRSC15310,103,164,,
sick,DRSC02090,116,136,,
sick,DRSC02300,101,94,,
sick,DRSC02301,122,91.7,,
sick,DRSC02302,131,106,,
sick,DRSC02303,59.5 (active),95.3,,
sick,DRSC02306,110,88.3,,
GstD6,DRSC16687,129,92.6,,
eas,DRSC20329,108,129,,
CG32295,DRSC23259,98,98.5,,
CG7903,DRSC16338,159,152,,
Spp,DRSC00328,99.7,222,,
CG13251,DRSC11699,112,132,,
CG8419,DRSC03087,128,122,,
Mcm7,DRSC11219,87,116,,
PolE1,DRSC16112,195,283,,

Entries listed so far whose target name begins with P or p:
Target gene,dsRNA,"calcium signal, replicate 1","calcium signal, replicate 2","retest calcium signal, replicate 1","retest calcium signal, replicate 2"
ppk25,DRSC04973,109,101,,
PolE1,DRSC16112,195,283,,

Continued:
Target gene,dsRNA,"calcium signal, replicate 1","calcium signal, replicate 2","retest calcium signal, replicate 1","retest calcium signal, replicate 2"
CG31743 + CG34313,DRSC02781,53.5 (active),103,,
CG31743 + CG34313,DRSC02782,126,126,,
CG31482,DRSC12582,88.3,105,,
CG5160,DRSC02821,66.9 (active),167,,
CG31496,DRSC12547,101,171,,
CG10175,DRSC14200,219,125,,
CG10175,DRSC21981,80,119,,
sphinx2,DRSC22188,118,202,,
CG18231,DRSC10307,72,182,,
GstZ1,DRSC16478,101,125,,
l(2)gd1,DRSC02773,106,124,,
CG15922,DRSC15128,126,197,,
CG11379,DRSC18629,82.1,115,,
CG2493,DRSC02707,110,125,,
CG14659,DRSC12245,59.4 (active),105,,
Twdlbeta,DRSC07310,107,213,,
CG11241,DRSC11641,130,94.9,169,122
CG11241,DRSC22165,140,204,,
CG16749,DRSC15146,72 (active),99.5,,
CG5958,DRSC02915,163,85.8,,
CG14837,DRSC10207,111,102,,
CG15147,DRSC02447,127,159,140,120
CG15147,DRSC02448,122,108,,
rost,DRSC03603,95.4,104,,
CG3402,DRSC08567,70.7 (active),114,,
